We go through 32 compounds from the supplement of paper PMC4635364.

Where a name gives a salt, the structure may show the parent alone. The list shows a part of the results. Repeats in this data set agree poorly, so a single value says little.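 Cells: ReNCell VM human fetal ventral-midbrain neural progenitors, differentiated mitogen-free. Blinded raters compared doublecortin-stained (early neurons) or tyrosine hydroxylase-stained (dopaminergic neurons) images with untreated wells, where 0 means no change. After repeats and both raters were averaged, compounds scoring 2 or above became hits for retesting.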

Experiment [1] concerns ReNCell VM. Kind of experiment: neuronal differentiation score (DCX+ cell fraction vs untreated, manual image score) (score (-3 to 3)); higher = more neuronal differentiation. Conditions: 2 uM, 2 weeks.
Experiment [2] has as its system ReNCell VM. The experiment in a line: dopaminergic neuron differentiation score (TH+ cell fraction vs untreated, manual image score) (score (0 to 3)); higher = more TH+ dopaminergic neuron differentiation. The following applies: 2 uM, 4 weeks, BDNF 10 ng/ml + GDNF 10 ng/ml.

On to `NC(=O)c1ccc(OCC(O)CN2CC=C(c3ccc(F)cc3)CC2)cc1` (centres undefined), for which, in the experiment with ReNCell VM [1] (library: LOPAC), the neuronal differentiation score is inactive: 0. Also, the “dopaminergic neuron differentiation score” value in the experiment on ReNCell VM [2] (library: LOPAC) was inactive: 0.

For `COc1cc([C@@H]2c3cc4c(cc3[C@H](O)[C@H]3COC(=O)[C@H]23)OCO4)cc(OC)c1OC`, in the experiment with ReNCell VM [1] (library: Spectrum), the neuronal differentiation score is inactive: 0. Also, in the experiment on ReNCell VM [2] (library: Spectrum), the “dopaminergic neuron differentiation score” value is inactive: 0.

Regarding `COc1ccc2c3c1O[C@H]1C(=O)CC[C@@]4(O)C(C2)N(CC2CC2)CCC314` (single isomer, unassigned; (-)) [(-)-3-Methoxynaltrexone hydrochloride], the neuronal differentiation score with ReNCell VM [1] (library: LOPAC) was inactive: 0. The “dopaminergic neuron differentiation score” value in the experiment on ReNCell VM [2] (library: LOPAC) is inactive: 0.

`CC(=O)OCC1=C(C(=O)[O-])N2C(=O)[C@@H](NC(=O)CCC[C@@H](N)C(=O)[O-])[C@H]2SC1.[Zn+2]` [Cephalosporin C zinc salt]: in the experiment on ReNCell VM [1] (library: LOPAC), the neuronal differentiation score was inactive: 0. Further, the “dopaminergic neuron differentiation score” value in the experiment on ReNCell VM [2] (library: LOPAC) is inactive: 0.

Take `O[C@@H]1CCCC[C@H]1N1CCC(c2ccccc2)CC1` [L(-)-vesamicol hydrochloride]: the neuronal differentiation score in the experiment on ReNCell VM [1] (library: Prestwick) is inactive: 0. Besides, the “dopaminergic neuron differentiation score” value in the experiment on ReNCell VM [2] (library: Prestwick) is inactive: 0.

Turning to `COc1ccc2c(c1OC)CN1CCc3cc4c(cc3C1C2)OCO4` (centres undefined) [(d,l)-Tetrahydroberberine], in the experiment with ReNCell VM [1] (library: Phytochemical), the neuronal differentiation score is inactive: 0. In addition, the “dopaminergic neuron differentiation score” value in the experiment with ReNCell VM [2] (library: Phytochemical) was inactive: 0.

Turning to `CCCN(CCC)[C@@H]1CCc2c(F)ccc(O)c2C1` [R(+)-UH-301 hydrochloride], the neuronal differentiation score in the experiment on ReNCell VM [1] (library: LOPAC) is inactive: 0. Further, the “dopaminergic neuron differentiation score” value with ReNCell VM [2] (library: LOPAC) was inactive: 0.

In the case of `COc1ccc2c(c1OC)C(=O)O[C@@H]2[C@H]1c2cc3c(cc2CCN1C)OCO3` [Hydrastine], in the experiment with ReNCell VM [1] (library: Phytochemical), the neuronal differentiation score is inactive: 0. Moreover, the “dopaminergic neuron differentiation score” value with ReNCell VM [2] (library: Phytochemical) was inactive: 0.

For the compound `CN1C[C@@H](NS(=O)(=O)N(C)C)C[C@@H]2c3cccc4c3c(cn4C)C[C@H]21` [Mesulergine hydrochloride], the neuronal differentiation score with ReNCell VM [1] (library: LOPAC) is inactive: 0. Further, the “dopaminergic neuron differentiation score” value with ReNCell VM [2] (library: LOPAC) is inactive: 0.

`O=C1CC[C@@]2(O)[C@H]3Cc4ccc(O)c5c4[C@@]2(CCN3CC2CC2)[C@H]1O5` [Naltrexone hydrochloride]: in the experiment on ReNCell VM [1] (library: LOPAC), the neuronal differentiation score was inactive: 0. Moreover, the “dopaminergic neuron differentiation score” value in the experiment with ReNCell VM [2] (library: LOPAC) was inactive: 0.

`COc1cc2c(cc1O)C[C@H]1c3c(cc(O)c(OC)c3-2)CCN1C` [Boldine]: the neuronal differentiation score in the experiment on ReNCell VM [1] (library: Phytochemical) was inactive: -1. Also, the “dopaminergic neuron differentiation score” value in the experiment on ReNCell VM [2] (library: Phytochemical) is inactive: 0.

As to `CC(C)C[C@@H](N)C1(c2ccc(Cl)cc2)CCC1`, the neuronal differentiation score with ReNCell VM [1] (library: Tocriscreen) is inactive: 0. The “dopaminergic neuron differentiation score” value in the experiment with ReNCell VM [2] (library: Tocriscreen) was inactive: 0.

Consider `CCCCCCCCC(=O)NCc1ccc(O)c(OC)c1`, for which the neuronal differentiation score in the experiment on ReNCell VM [1] (library: Spectrum) was inactive: 0. In addition, the “dopaminergic neuron differentiation score” value in the experiment on ReNCell VM [2] (library: Spectrum) is inactive: 0.

As to `COc1cc(OC)c2c(c1)O[C@H](c1ccc(OC)c(OC)c1)[C@@H](O)C2`, the neuronal differentiation score with ReNCell VM [1] (library: Spectrum) is inactive: 0. In addition, the “dopaminergic neuron differentiation score” value with ReNCell VM [2] (library: Spectrum) is inactive: 0.

Regarding `NNCc1ccccc1`, the neuronal differentiation score with ReNCell VM [1] (library: Spectrum) was inactive: 0. Further, the “dopaminergic neuron differentiation score” value with ReNCell VM [2] (library: Spectrum) was inactive: 0.

As to `CC(=O)O[C@@H]1[C@H]2CC[C@H]3[C@@](C)(O)[C@@H]4C[C@H](O)C(C)(C)[C@@]4(O)[C@H](O)C[C@@]13C[C@@]2(C)O`, the neuronal differentiation score with ReNCell VM [1] (library: Spectrum) was inactive: 0. The “dopaminergic neuron differentiation score” value in the experiment with ReNCell VM [2] (library: Spectrum) was inactive: 0.

Turning to `CC(CN)CC(=O)O` (centres undefined) [3-Methyl-GABA], the neuronal differentiation score with ReNCell VM [1] (library: Tocriscreen) is inactive: 0. Also, the “dopaminergic neuron differentiation score” value in the experiment on ReNCell VM [2] (library: Tocriscreen) is inactive: 0.

Take `CO[C@H](C)[C@](O)(C(=O)OCC1=CCN2CC[C@H](O)[C@@H]12)C(C)C` [Heliotrine]: in the experiment on ReNCell VM [1] (library: Phytochemical), the neuronal differentiation score was inactive: 0. The “dopaminergic neuron differentiation score” value in the experiment with ReNCell VM [2] (library: Phytochemical) is inactive: 0.

On to `C[C@@H]1C(=O)O[C@H]2[C@H]1CC[C@@]1(C)C=CC(=O)[C@@]3(C)O[C@@]213` [EPOXY (4,5alpha)-4,5-DIHYDROSANTONIN], for which the neuronal differentiation score in the experiment on ReNCell VM [1] (library: Spectrum) is inactive: 0. Also, the “dopaminergic neuron differentiation score” value in the experiment on ReNCell VM [2] (library: Spectrum) was inactive: 0.

Regarding `CC(=O)N(C)c1cccc(-c2ccnc3c(C(=O)c4cccs4)cnn23)c1` [Indiplon], the neuronal differentiation score in the experiment with ReNCell VM [1] (library: Tocriscreen) was inactive: 0. For the same compound, the “dopaminergic neuron differentiation score” value in the experiment on ReNCell VM [2] (library: Tocriscreen) was inactive: 0.

For `COCC#CCN1CCCCC1c1cccnc1` (centres undefined), the neuronal differentiation score in the experiment with ReNCell VM [1] (library: Natural) was inactive: 0. In addition, the “dopaminergic neuron differentiation score” value in the experiment with ReNCell VM [2] (library: Natural) was inactive: 0.

Turning to `C[C@]12CC[C@@H](O)C[C@@H]1CC[C@@H]1[C@@H]2CC[C@]2(C)[C@@H](C(=O)CO)CC[C@@H]12` [3-alpha,21-Dihydroxy-5-alpha-pregnan-20-one], the neuronal differentiation score in the experiment on ReNCell VM [1] (library: LOPAC) is inactive: 0. The “dopaminergic neuron differentiation score” value in the experiment on ReNCell VM [2] (library: LOPAC) was inactive: 0.

Turning to `Clc1cc(I)cc(Cl)c1NC1=NCCN1` [p-Iodoclonidine hydrochloride], the neuronal differentiation score in the experiment on ReNCell VM [1] (library: LOPAC) was inactive: 0. The “dopaminergic neuron differentiation score” value in the experiment on ReNCell VM [2] (library: LOPAC) is inactive: 0.

Consider `CN(C(=O)Cc1ccc(Cl)c(Cl)c1)C(CN1CCCC1)c1cccc(OCC(=O)O)c1` (centres undefined) [ICI 204,448 hydrochloride], for which the neuronal differentiation score in the experiment on ReNCell VM [1] (library: LOPAC) was inactive: 0. The “dopaminergic neuron differentiation score” value with ReNCell VM [2] (library: LOPAC) is inactive: 0.

Consider `CCOP(=S)(OCC)Oc1ccc2c(C)c(Cl)c(=O)oc2c1`, for which, in the experiment on ReNCell VM [1] (library: Spectrum), the neuronal differentiation score was inactive: 0. Further, the “dopaminergic neuron differentiation score” value in the experiment on ReNCell VM [2] (library: Spectrum) is inactive: 0.

`C[C@H]1C(=O)O[C@@H]2CCN3CC=C(COC(=O)[C@](C)(O)[C@]1(C)O)[C@H]23` [Monocrotaline]: the neuronal differentiation score with ReNCell VM [1] (library: Phytochemical) is inactive: 0. Further, the “dopaminergic neuron differentiation score” value in the experiment on ReNCell VM [2] (library: Phytochemical) was inactive: 0.

On to `C=CCc1ccccc1OCC(O)CNC1(C)CCC(C(C)(C)NC(=O)CBr)CC1` (centres undefined) [Bromoacetyl alprenolol menthane], for which the neuronal differentiation score in the experiment with ReNCell VM [1] (library: LOPAC) was inactive: 0. Moreover, the “dopaminergic neuron differentiation score” value in the experiment on ReNCell VM [2] (library: LOPAC) was inactive: 0.

In the case of `NCC(O)c1ccc(O)cc1` (racemic) [(+,-)-Octopamine hydrochloride], the neuronal differentiation score in the experiment on ReNCell VM [1] (library: Prestwick) was inactive: 0. Also, the “dopaminergic neuron differentiation score” value in the experiment on ReNCell VM [2] (library: Prestwick) is inactive: 0.

`Ic1cncc(OC[C@@H]2CCN2)c1`: the neuronal differentiation score with ReNCell VM [1] (library: Tocriscreen) is inactive: 0. In addition, the “dopaminergic neuron differentiation score” value in the experiment with ReNCell VM [2] (library: Tocriscreen) was inactive: 0.

As for `CC(=O)c1c(O)c(C)c(O)c(Cc2c(O)c3c(c(C(=O)/C=C/c4ccccc4)c2O)OC(C)(C)C=C3)c1O` [Rottlerin], the neuronal differentiation score in the experiment with ReNCell VM [1] (library: LOPAC) is inactive: 0. Besides, the “dopaminergic neuron differentiation score” value in the experiment with ReNCell VM [2] (library: LOPAC) is inactive: 0.

For `COc1ccc(CC2c3cc(OC)c(OC)cc3CCN2C)cc1OC` (racemic) [Laudanosine (R,S)], the neuronal differentiation score in the experiment with ReNCell VM [1] (library: Phytochemical) was inactive: 0. For the same compound, the “dopaminergic neuron differentiation score” value in the experiment with ReNCell VM [2] (library: Phytochemical) was inactive: 0.

As for `CN(C(=O)Cc1ccc(Cl)c(Cl)c1)[C@H](CN1CCCC1)c1ccccc1` [ICI-199,441 hydrochloride], the neuronal differentiation score in the experiment on ReNCell VM [1] (library: Tocriscreen) is inactive: 0. Also, in the experiment with ReNCell VM [2] (library: Tocriscreen), the “dopaminergic neuron differentiation score” value is inactive: 0.
